Measurements reported in PubChem BioAssay AID493246 (Drosophila RNAi Screening Center, 2011)

Test: 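Genes fly cells need to grow and stay alive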 (primary screen)
System: Drosophila Kc and S2R+ cells
Reagent: long dsRNA against Drosophila genes
Measurement: 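Raw, unnormalised count of remaining cells in each well; per-plate z-scores of cell number underlie the calls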
Reading the numbers: Kc cell number and S2R+ cell number: higher = more cells remaining
Hit rule: 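Active when the per-plate z-score of cell number is 3 or more in the direction of fewer cells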
In all, the deposit lists about 21,000 reagents; this is an unselected part of those that have a named target and a result. Of all reagents, 429 (2%) are marked active. 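Values are raw and not normalised between plates; calls rest on per-plate z-scores that were not deposited.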 Names joined by + are all predicted targets of the reagent. Not given: the amount of reagent, the time to read-out.

gene knocked down | DRSC id | Kc cell number, rep 1 | Kc cell number, rep 2 | S2R+ cell number, rep 1 | S2R+ cell number, rep 2 | call
twit (GeneID 35353) | DRSC03210 | 1.46e6 | 1.55e6 | 1.03e6 | 1.08e6 | inactive
Jhbp3 (GeneID 40611) | DRSC12247 | 1.87e6 | 1.91e6 | 1.35e6 | 1.45e6 | inactive
lectin-37Da (GeneID 3346222) | DRSC03278 | 1.30e6 | 1.30e6 | 1.02e6 | 1.17e6 | inactive
Myo10A (GeneID 32028) | DRSC19834 | 1.82e6 | 1.68e6 | 1.11e6 | 1.24e6 | inactive
Myo10A (GeneID 32028) | DRSC19837 | 1.48e6 | 1.46e6 | 1.03e6 | 1.12e6 | inactive
CG14302 (GeneID 42252) | DRSC14781 | 1.19e6 | 1.14e6 | 1.12e6 | 1.19e6 | inactive
CG42397 (GeneID 8673976) | DRSC09147 | 1.43e6 | 1.46e6 | 1.15e6 | 1.26e6 | inactive
Oseg4 (GeneID 38219) | DRSC08548 | 1.59e6 | 1.71e6 | 1.29e6 | 1.32e6 | inactive
CG31109 (GeneID 43001) | DRSC14648 | 1.50e6 | 1.60e6 | 9.31e5 | 1.06e6 | inactive
CCHa1-R (GeneID 37004) | DRSC06456 | 1.67e6 | 1.66e6 | 1.26e6 | 1.47e6 | inactive
CCHa1-R (GeneID 37004) | DRSC06715 | 1.59e6 | 1.64e6 | 1.15e6 | 1.42e6 | inactive
sced (GeneID 35564) | DRSC04990 | 1.37e6 | 1.41e6 | 1.11e6 | 1.15e6 | inactive
CG33631 (GeneID 3771784) | DRSC12763 | 1.33e6 | 1.51e6 | 1.06e6 | 1.19e6 | inactive
CG11127 (GeneID 35673) | DRSC06043 | 1.41e6 | 1.45e6 | 1.00e6 | 1.08e6 | inactive
RpS10a (GeneID 43321) | DRSC14161 | 5.48e5 | – | 8.35e5 | – | inactive
Tsp42Eo (GeneID 35625) | DRSC06184 | 1.44e6 | 1.52e6 | 1.18e6 | 1.26e6 | inactive
CG8642 (GeneID 35845) | DRSC07228 | 1.80e6 | 1.81e6 | 1.44e6 | 1.64e6 | inactive
CG5787 (GeneID 34684) | DRSC02895 | 1.44e6 | 1.47e6 | 9.79e5 | 1.11e6 | inactive
Atxn7 (GeneID 33423) | DRSC00726 | 1.28e6 | 1.36e6 | 1.06e6 | 9.87e5 | inactive
CG42323 (GeneID 32825) | DRSC19629 | 1.60e6 | 1.64e6 | 1.15e6 | 1.25e6 | inactive
prg (GeneID 34177) | DRSC03324 | 1.91e6 | 1.93e6 | 1.22e6 | 1.42e6 | inactive
Jhbp6 (GeneID 40479) | DRSC11714 | 1.54e6 | 1.66e6 | 1.20e6 | 1.37e6 | inactive
inaF-B (GeneID 8674114) | DRSC18903 | 1.23e6 | 1.46e6 | 1.06e6 | 1.05e6 | inactive
SkpC (GeneID 32996) | DRSC20375 | 1.54e6 | 1.56e6 | 1.03e6 | 1.14e6 | inactive
CG14265 (GeneID 31297) | DRSC18591 | 1.73e6 | 1.71e6 | 1.04e6 | 1.16e6 | inactive
Poc1 (GeneID 39502) | DRSC09713 | 1.29e6 | 1.32e6 | 1.35e6 | 9.92e5 | inactive
Cyp311a1 (GeneID 32170) | DRSC20239 | 1.59e6 | 1.60e6 | 1.09e6 | 1.23e6 | inactive
Phae1 (GeneID 34637) | DRSC02554 | 1.69e6 | 1.90e6 | 1.22e6 | 1.22e6 | inactive
PXo (GeneID 38666) | DRSC09734 | 1.47e6 | 1.51e6 | 1.24e6 | 1.17e6 | inactive
Asciz (GeneID 38381) | DRSC08421 | 1.43e6 | 1.44e6 | 1.05e6 | 1.16e6 | inactive
CG8060 (GeneID 36824) | DRSC07064 | 1.37e6 | 1.44e6 | 1.28e6 | 1.29e6 | inactive
CG14937 (GeneID 34591) | DRSC02419 | 1.74e6 | 1.62e6 | 1.30e6 | 1.47e6 | inactive
Sptz (GeneID 41370) | DRSC15758 | 1.76e6 | 1.80e6 | 1.41e6 | 1.46e6 | inactive
CG12278 (GeneID 42486) | DRSC14494 | 1.22e6 | 1.34e6 | 9.74e5 | 1.08e6 | inactive
Cdep (GeneID 40608) | DRSC12028 | 1.51e6 | 1.70e6 | 1.24e6 | 1.35e6 | inactive
Cdep (GeneID 40608) | DRSC12220 | 1.63e6 | 1.62e6 | 1.24e6 | 1.32e6 | inactive
Cdep (GeneID 40608) | DRSC12291 | 1.81e6 | 2.01e6 | 1.31e6 | 1.34e6 | inactive
CG33203 (GeneID 43414) | DRSC14874 | 1.40e6 | 1.46e6 | 1.02e6 | 1.11e6 | inactive
CG33203 (GeneID 43414) | DRSC14876 | 1.51e6 | 1.52e6 | 1.03e6 | 1.15e6 | inactive
CG33203 (GeneID 43414) | DRSC14877 | 1.53e6 | 1.58e6 | 1.04e6 | 1.14e6 | inactive
Ugt36E1 (GeneID 35139) | DRSC02599 | 1.27e6 | 1.36e6 | 1.24e6 | 1.22e6 | inactive
CG42375 + CG9288 | DRSC16468 | 1.85e6 | 1.65e6 | 1.42e6 | 1.49e6 | inactive
rig (GeneID 37335) | DRSC06053 | 1.23e6 | 1.36e6 | 1.16e6 | 1.21e6 | inactive
rig (GeneID 37335) | DRSC06400 | 1.61e6 | 1.35e6 | 9.63e5 | 1.26e6 | inactive
CG9067 (GeneID 36197) | DRSC07328 | 1.51e6 | 1.53e6 | 1.16e6 | 1.33e6 | inactive
Ibf2 (GeneID 41102) | DRSC16551 | 1.69e6 | 1.73e6 | 1.36e6 | 1.56e6 | inactive

Next part, starting with the last 6 of the part before.
gene knocked down | DRSC id | Kc cell number, rep 1 | Kc cell number, rep 2 | S2R+ cell number, rep 1 | S2R+ cell number, rep 2 | call
Ugt36E1 (GeneID 35139) | DRSC02599 | 1.27e6 | 1.36e6 | 1.24e6 | 1.22e6 | inactive
CG42375 + CG9288 | DRSC16468 | 1.85e6 | 1.65e6 | 1.42e6 | 1.49e6 | inactive
rig (GeneID 37335) | DRSC06053 | 1.23e6 | 1.36e6 | 1.16e6 | 1.21e6 | inactive
rig (GeneID 37335) | DRSC06400 | 1.61e6 | 1.35e6 | 9.63e5 | 1.26e6 | inactive
CG9067 (GeneID 36197) | DRSC07328 | 1.51e6 | 1.53e6 | 1.16e6 | 1.33e6 | inactive
Ibf2 (GeneID 41102) | DRSC16551 | 1.69e6 | 1.73e6 | 1.36e6 | 1.56e6 | inactive
CG15923 (GeneID 42443) | DRSC15129 | 1.46e6 | 1.67e6 | 1.13e6 | 1.20e6 | inactive
CG10553 (GeneID 43064) | DRSC14254 | 1.78e6 | 1.86e6 | 1.03e6 | 1.10e6 | inactive
CG32212 + hpRNA:CR33940 | DRSC09618 | 1.35e6 | 1.45e6 | 1.10e6 | 1.34e6 | inactive
b6 (GeneID 31124) | DRSC18740 | 1.61e6 | 1.73e6 | 1.03e6 | 1.15e6 | inactive
Spn53F (GeneID 36931) | DRSC06022 | 1.49e6 | 1.59e6 | 1.13e6 | 1.18e6 | inactive
CG13615 (GeneID 42916) | DRSC14618 | 1.39e6 | 1.44e6 | 1.02e6 | 1.13e6 | inactive
CG11368 (GeneID 50397) | DRSC17778 | 1.56e6 | 1.59e6 | 1.15e6 | 1.25e6 | inactive
smid (GeneID 38824) | DRSC11398 | 1.35e6 | 1.27e6 | 1.15e6 | 1.19e6 | inactive
Tbc1d22 (GeneID 42498) | DRSC15867 | 1.57e6 | 1.56e6 | 1.25e6 | 1.31e6 | inactive
side-IV + CG17025 (retired record) | DRSC15168 | 1.35e6 | 1.35e6 | 1.06e6 | 1.22e6 | inactive
Cog2 (GeneID 41870) | DRSC16987 | 1.18e6 | 1.25e6 | 1.09e6 | 1.15e6 | inactive
skd (GeneID 43906) | DRSC11898 | 1.42e6 | 1.45e6 | 1.37e6 | 1.42e6 | inactive
BCAS2 (GeneID 43348) | DRSC15693 | 5.59e5 | – | 8.19e5 | – | inactive
CG34012 (GeneID 3885632) | DRSC09089 | 1.48e6 | 1.57e6 | 1.19e6 | 1.35e6 | inactive
CG9119 (GeneID 38124) | DRSC08620 | 1.37e6 | 1.37e6 | 9.42e5 | 9.68e5 | inactive
CG42521 (GeneID 8674012) | DRSC10154 | 1.74e6 | 1.74e6 | 1.40e6 | 1.58e6 | inactive
ms(3)76Cc (GeneID 40142) | DRSC11071 | 1.46e6 | 1.43e6 | 1.36e6 | 1.48e6 | inactive
bw (GeneID 37724) | DRSC04005 | 1.44e6 | 1.52e6 | 9.55e5 | 1.07e6 | inactive
bw (GeneID 37724) | DRSC04677 | 1.36e6 | 1.43e6 | 1.17e6 | 1.28e6 | inactive
CG13071 (GeneID 39781) | DRSC09954 | 1.29e6 | 1.35e6 | 1.33e6 | 1.46e6 | inactive
Ercc1 (GeneID 36654) | DRSC07424 | 1.21e6 | 1.30e6 | 7.41e5 | 8.26e5 | inactive
FMRFaR (GeneID 38357) | DRSC08555 | 1.24e6 | 1.36e6 | 1.11e6 | 1.28e6 | inactive
RpL10 (GeneID 43864) | DRSC11947 | 8.40e5 | 9.11e5 | 7.47e5 | 8.44e5 | active
CG14024 (GeneID 33760) | DRSC00868 | 1.54e6 | 1.61e6 | 1.17e6 | 1.34e6 | inactive
CG14024 (GeneID 33760) | DRSC02354 | 1.30e6 | 1.29e6 | 6.38e5 | 6.71e5 | inactive
betaTub65B (GeneID 117406) | DRSC11393 | 1.44e6 | 1.21e6 | 1.17e6 | 1.18e6 | inactive
CG6280 (GeneID 36522) | DRSC06972 | 1.66e6 | 1.69e6 | 1.22e6 | 1.37e6 | inactive
Pvr (GeneID 34127) | DRSC03080 | 4.61e5 | 5.31e5 | 5.39e5 | 6.21e5 | active
TMEM216 (GeneID 41035) | DRSC16378 | 1.37e6 | 1.58e6 | 1.25e6 | 1.37e6 | inactive
